The list is a part of this screen's results and no random one: it covers a few groups of compounds. Not every dose and run of a compound is shown. T/C gives the treated animals as a percentage of the vehicle group. For survival time, this PubChem deposit counts one and a half times the control or more as active, and values a quarter to a half above the control carry no call in these data; other NCI protocols may use other cut-offs. Some entries show no survivor count and are marked so; the dose need not have been tolerated. Schedule codes are those of the source, read here as Q, the interval in days (D) or hours (H), X, the number of doses. Some entries hold several experiments; the results are listed from low to high. Some schedule codes hold Z or #, which are not explained here.

In the assay the test system is BDF1 mice, L1210 terephthalanilide-resistant leukemia ip, survival T/C. As to the kind of experiment: NCI In Vivo Anticancer Drug Screen. Data for tumor model L1210 Leukemia resistant to A Terephthalanilide; NSC 38280 (intraperitoneal) in B6D2F1 (BDF1) mice. Conditions: T/C endpoint: mean survival time, vehicle: saline, higher T/C = longer survival. As to the method:
The antitumor activity of compounds was measured in mice bearing transplantable tumors. Survival or tumor size were measured and the results are expressed as the measurement made in the treated group (T) divided by the measurement made in the vehicle treated control group (C). The tumor model used in this assay is L1210 Leukemia resistant to A Terephthalanilide; NSC 38280 (intraperitoneal) in B6D2F1 (BDF1) mice

For the molecule `ClCCN(CCCl)Cc1nc2ccccc2[nH]1`, the T/C (dose: 1.25 mg/kg/injection, schedule: Q01DX010 (ip)) is 107 % of control [survivor count not shown]; the T/C (dose: 2.0 mg/kg/injection, schedule: Q01DX Z (ip)) is 125 % of control [survivor count not shown]; the T/C (dose: 2.5 mg/kg/injection, schedule: Q01DX010 (ip)) is 112 [survivor count not shown] and 118 % of control [survivor count not shown]; the T/C (dose: 3.0 mg/kg/injection, schedule: Q01DX Z (ip)) was 122 % of control [survivor count not shown]; the T/C (dose: 4.0 mg/kg/injection, schedule: Q01DX Z (ip)) is 148 % of control [survivor count not shown]; the T/C (dose: 5.0 mg/kg/injection, schedule: Q01DX010 (ip)) is 130 [survivor count not shown] and 133 % of control [survivor count not shown]. The T/C is, setting by setting: (dose: 5.0 mg/kg/injection, schedule: Q01DX Z (ip)) 135 % of control [survivor count not shown]; (dose: 6.0 mg/kg/injection, schedule: Q01DX Z (ip)) 174 % of control [survivor count not shown]; (dose: 7.5 mg/kg/injection, schedule: Q01DX Z (ip)) 187 % of control [survivor count not shown]; (dose: 10.0 mg/kg/injection, schedule: Q01DX010 (ip)) 107 [survivor count not shown] and 149 % of control [survivor count not shown]; (dose: 10.0 mg/kg/injection, schedule: Q01DX Z (ip)) 132 % of control [survivor count not shown]; (dose: 15.0 mg/kg/injection, schedule: Q01DX Z (ip)) 95 % of control [survivor count not shown].
With `ClCCNCCCl`, the T/C reads like this: (dose: 9.4 mg/kg/injection, schedule: Q01DX010 (ip)) 113 % of control [survivor count not shown]; (dose: 12.5 mg/kg/injection, schedule: Q01DX Z (ip)) 90 [survivor count not shown] and 117 % of control [survivor count not shown]; (dose: 18.8 mg/kg/injection, schedule: Q01DX010 (ip)) 133 [survivor count not shown] and 147 % of control [survivor count not shown]; (dose: 25.0 mg/kg/injection, schedule: Q01DX Z (ip)) 115 [survivor count not shown] and 117 % of control [survivor count not shown]; (dose: 37.5 mg/kg/injection, schedule: Q01DX010 (ip)) 104 [survivor count not shown] and 159 % of control [survivor count not shown]; (dose: 37.5 mg/kg/injection, schedule: Q01DX Z (ip)) 122 % of control [survivor count not shown]. The T/C reads like this: (dose: 50.0 mg/kg/injection, schedule: Q01DX Z (ip)) 181 % of control [survivor count not shown]; (dose: 75.0 mg/kg/injection, schedule: Q01DX Z (ip)) 119 % of control [survivor count not shown]; (dose: 100.0 mg/kg/injection, schedule: Q01DX Z (ip)) 105 % of control [survivor count not shown].

The record behind these values is PubChem BioAssay AID282 (DTP/NCI, 2004).
